Measured values: article PMC2932438 (Journal of pharmaceutical and biomedical analysis, 2010)

Assays:
ERRγ = conditions: cited from earlier work
T98G glioma cell line = assay: MTS proliferation assay; format: cell-based; conditions: Homo sapiens, 48 h, read-out: IC50 values T98G cell line

SMILES: CC/C(=C(\c1ccccc1)c1ccc(OCCN(C)C)cc1)c1ccccc1 [Tamoxifen]
- Ki (ERRγ): 0.87 µM
- IC50 (T98G glioma cell line): 118 µM
